Patent US20230039401A1, “COMPOSITIONS AND METHODS FOR TREATING NRP2-ASSOCIATED DISEASES” (aTyr Pharma, Inc., priority 2018, published 2023)
Results are given in words; binding and its absence hold for the method and conditions named. Some results given as binding are weak or reduced against the parent protein; the word gives no strength.

Sequences of proteins named here, by UniProt entry; tags and fusion partners are left off. A change or cut given only in a name is not applied to a line headed by its entry. A line that says so, or that is headed by a name, gives the form on record, which may keep a tag or linker. Residues count along the entry.
UniProt O60462, residues 23-864: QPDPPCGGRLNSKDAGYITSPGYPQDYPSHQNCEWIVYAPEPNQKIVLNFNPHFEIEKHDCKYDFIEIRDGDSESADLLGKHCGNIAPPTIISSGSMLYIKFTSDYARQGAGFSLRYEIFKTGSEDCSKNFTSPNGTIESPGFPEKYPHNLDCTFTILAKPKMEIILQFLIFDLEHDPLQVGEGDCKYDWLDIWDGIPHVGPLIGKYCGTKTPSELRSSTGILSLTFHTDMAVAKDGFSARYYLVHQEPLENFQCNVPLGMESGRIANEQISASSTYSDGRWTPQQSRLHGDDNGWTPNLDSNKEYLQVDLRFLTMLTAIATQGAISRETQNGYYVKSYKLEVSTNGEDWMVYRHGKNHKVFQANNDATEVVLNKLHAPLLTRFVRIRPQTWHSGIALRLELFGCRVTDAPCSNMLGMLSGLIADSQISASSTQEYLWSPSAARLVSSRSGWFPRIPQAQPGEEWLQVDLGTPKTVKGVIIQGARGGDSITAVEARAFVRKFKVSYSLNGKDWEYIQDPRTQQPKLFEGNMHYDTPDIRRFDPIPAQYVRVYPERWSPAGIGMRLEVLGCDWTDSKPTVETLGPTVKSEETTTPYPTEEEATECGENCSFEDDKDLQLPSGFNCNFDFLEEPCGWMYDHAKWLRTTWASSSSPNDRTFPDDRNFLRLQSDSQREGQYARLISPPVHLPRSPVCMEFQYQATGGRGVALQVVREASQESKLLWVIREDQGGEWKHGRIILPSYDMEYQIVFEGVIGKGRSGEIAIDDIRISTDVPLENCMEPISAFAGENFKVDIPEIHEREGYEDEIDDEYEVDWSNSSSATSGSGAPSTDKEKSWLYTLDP
VEGF-A165 (Peprotech #100-20) (P15692, form named): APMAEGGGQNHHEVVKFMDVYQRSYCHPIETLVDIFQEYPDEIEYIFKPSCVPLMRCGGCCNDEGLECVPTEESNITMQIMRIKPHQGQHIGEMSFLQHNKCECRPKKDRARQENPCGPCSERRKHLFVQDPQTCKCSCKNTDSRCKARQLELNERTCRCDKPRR
UniProt P49767, residues 103-227: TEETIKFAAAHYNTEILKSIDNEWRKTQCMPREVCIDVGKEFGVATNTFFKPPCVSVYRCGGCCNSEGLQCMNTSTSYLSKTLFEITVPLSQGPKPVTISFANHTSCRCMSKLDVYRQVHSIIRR

Biological target: NRP2-Fc (R&D Systems #2215-N2) (human) (UniProt O60462)
Experiment: SPR (column: Binding to NRP2 observed by SPR)

| binding | Substance |
| --- | --- |
| binds | VEGF-A165 (Peprotech #100-20) (from UniProt P15692 27-191) (ligand) |
| binds | VEGF-C (R&D Systems #9199-VC/CF) (from UniProt P49767 103-227) (ligand) |
